These are yes or no findings as the source states them, for the method shown. For some of these results: In cells and extracts the contact can be indirect. Some entries that bind do so weakly or less than the wild type. Sequences can lack the tags named with a protein.

Chains of the proteins cited; added tags and fusions are not shown. Lines headed by an entry give the natural chain unless they say otherwise; changes in a name come on top.
UniProt P04050: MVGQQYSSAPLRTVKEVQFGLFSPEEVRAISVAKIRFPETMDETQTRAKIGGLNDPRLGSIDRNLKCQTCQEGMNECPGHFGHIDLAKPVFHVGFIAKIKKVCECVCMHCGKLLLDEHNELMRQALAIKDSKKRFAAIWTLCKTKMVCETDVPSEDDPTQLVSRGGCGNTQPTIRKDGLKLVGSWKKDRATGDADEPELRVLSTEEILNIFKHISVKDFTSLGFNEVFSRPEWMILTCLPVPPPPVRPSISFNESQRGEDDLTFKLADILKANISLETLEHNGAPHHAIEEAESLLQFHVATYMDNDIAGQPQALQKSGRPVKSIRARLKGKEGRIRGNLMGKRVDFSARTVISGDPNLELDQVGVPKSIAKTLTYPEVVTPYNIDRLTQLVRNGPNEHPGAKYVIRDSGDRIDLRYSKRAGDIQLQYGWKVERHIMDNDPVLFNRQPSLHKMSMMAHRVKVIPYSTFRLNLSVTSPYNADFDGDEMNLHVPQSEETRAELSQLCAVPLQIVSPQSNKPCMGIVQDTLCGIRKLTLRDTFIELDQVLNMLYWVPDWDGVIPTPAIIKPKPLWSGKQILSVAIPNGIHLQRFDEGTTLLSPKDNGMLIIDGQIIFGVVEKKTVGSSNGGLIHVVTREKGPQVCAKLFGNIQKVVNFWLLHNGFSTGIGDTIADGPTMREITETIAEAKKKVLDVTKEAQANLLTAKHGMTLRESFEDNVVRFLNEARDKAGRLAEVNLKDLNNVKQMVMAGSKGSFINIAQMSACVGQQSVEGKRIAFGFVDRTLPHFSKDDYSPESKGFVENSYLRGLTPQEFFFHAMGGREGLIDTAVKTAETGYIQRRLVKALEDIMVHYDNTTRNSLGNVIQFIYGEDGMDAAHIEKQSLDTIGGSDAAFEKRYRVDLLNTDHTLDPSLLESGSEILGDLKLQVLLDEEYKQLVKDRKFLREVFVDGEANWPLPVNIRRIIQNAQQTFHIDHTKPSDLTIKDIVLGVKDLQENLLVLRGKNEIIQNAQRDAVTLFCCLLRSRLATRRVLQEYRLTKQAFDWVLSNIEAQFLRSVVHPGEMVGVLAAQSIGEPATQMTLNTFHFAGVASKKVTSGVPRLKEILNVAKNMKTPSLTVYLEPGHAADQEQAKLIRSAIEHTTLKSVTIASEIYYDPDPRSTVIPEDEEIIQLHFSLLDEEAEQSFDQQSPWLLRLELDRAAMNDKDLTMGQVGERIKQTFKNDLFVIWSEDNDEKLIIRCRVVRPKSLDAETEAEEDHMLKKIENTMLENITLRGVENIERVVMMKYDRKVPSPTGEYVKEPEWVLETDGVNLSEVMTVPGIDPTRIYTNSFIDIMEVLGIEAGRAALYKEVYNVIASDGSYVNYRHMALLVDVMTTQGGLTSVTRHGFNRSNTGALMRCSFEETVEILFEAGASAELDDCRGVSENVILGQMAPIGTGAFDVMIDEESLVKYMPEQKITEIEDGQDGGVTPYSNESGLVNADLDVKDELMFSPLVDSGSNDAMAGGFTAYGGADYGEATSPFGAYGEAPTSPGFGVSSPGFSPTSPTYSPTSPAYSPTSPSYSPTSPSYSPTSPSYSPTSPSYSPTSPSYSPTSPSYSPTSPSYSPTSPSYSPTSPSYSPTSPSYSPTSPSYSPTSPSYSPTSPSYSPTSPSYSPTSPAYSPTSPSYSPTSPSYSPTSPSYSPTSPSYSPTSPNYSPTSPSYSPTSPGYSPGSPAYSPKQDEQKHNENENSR

The target of experiment [1] is T1, Gal4 DNA-binding domain (GBD) fused to Bye1 (whole protein) (S. cerevisiae) (UniProt P36106).
T1 sequence: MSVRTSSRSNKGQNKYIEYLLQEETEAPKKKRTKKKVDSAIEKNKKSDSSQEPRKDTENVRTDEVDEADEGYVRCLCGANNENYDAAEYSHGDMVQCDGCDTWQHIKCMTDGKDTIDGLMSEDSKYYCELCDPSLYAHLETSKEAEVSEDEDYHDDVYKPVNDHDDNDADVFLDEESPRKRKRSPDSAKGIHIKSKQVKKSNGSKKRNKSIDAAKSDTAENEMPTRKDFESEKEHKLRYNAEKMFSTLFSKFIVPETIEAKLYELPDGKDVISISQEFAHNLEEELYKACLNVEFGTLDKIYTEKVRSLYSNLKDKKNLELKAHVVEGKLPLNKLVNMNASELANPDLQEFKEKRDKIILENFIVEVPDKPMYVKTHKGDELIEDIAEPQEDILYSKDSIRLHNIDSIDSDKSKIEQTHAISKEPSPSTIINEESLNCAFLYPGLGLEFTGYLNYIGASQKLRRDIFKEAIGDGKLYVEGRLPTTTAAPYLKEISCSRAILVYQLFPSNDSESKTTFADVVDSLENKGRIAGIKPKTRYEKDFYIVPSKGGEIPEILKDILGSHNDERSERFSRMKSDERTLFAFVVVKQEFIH
In words: two-hybrid; Y190 strain; GAD fused to the Rpb1 jaw domain, GBD fused to Bye1, its deletions or TFIIS; X-Gal agarose overlay for β-galactosidase activity.

For experiment [2], the target named is T2, Gal4 DNA-binding domain (GBD) fused to TFIIS (S. cerevisiae) (UniProt P07273).
T2 sequence: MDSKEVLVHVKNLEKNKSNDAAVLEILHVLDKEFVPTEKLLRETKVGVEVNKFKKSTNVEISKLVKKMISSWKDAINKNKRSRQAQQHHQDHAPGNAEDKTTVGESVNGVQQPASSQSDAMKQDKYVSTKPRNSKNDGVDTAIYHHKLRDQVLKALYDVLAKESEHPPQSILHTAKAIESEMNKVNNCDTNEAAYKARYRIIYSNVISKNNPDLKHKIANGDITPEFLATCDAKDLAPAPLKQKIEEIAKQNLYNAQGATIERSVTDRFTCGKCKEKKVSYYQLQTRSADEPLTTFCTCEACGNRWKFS
The description is as above.

Experiment [3] has as its target Rpb1 subunit of RNA polymerase II (S. cerevisiae (endogenous in yeast)) (UniProt P04050). The experiment in a line: co-IP; from formaldehyde cross-linked, sonicated chromatin of the Bye1-Myc HA-TFIIS strain; IP as for ChIP on IgG magnetic beads with antibody against Rpb1 (8WG16), Western blot with anti-Myc and anti-HA; IP without antibodies as mock. (In general: A western blot detects proteins with antibodies after separation by electrophoresis.)

Take “Gal4 activation domain (GAD) fused to the jaw domain (aa 1154–1252) of Rpb1 (from UniProt P04050 1154-1252) (domain or fragment)”: the binding result in experiment [1] and in experiment [2] was “binds” in each case.

B1: HA-TFIIS (HA-tagged TFIIS transcription factor) (protein, UniProt P07273 1-309)
chain: T2 sequence
With B1, the binding entry in experiment [3] is on record as “binds weakly”.

B2: Bye1-Myc (BYpass of Ess1 protein, Myc-tagged) (protein, UniProt P36106 1-594)
chain: T1 sequence
In the case of B2, in experiment [3], the binding entry is listed as “binds”.

The values above are taken from article PMC4100922.
